Laboratory results from publication PMC7561725.
These are yes or no findings as the source states them, for the method shown. Binding seen in cells or lysates may run through a third protein. Here binding means that the protein was enriched with, or labelled near, the bait; the list need not be complete. For some assays here: No binding means not detected with the bait.

Protein sequences, listed by entry. Tags and fused reporters are not part of them. Lines headed by an entry give the natural chain unless they say otherwise; changes in a name come on top. Chains listed by the source or under a name are the forms on record and can include a tag or linker.
WDR26-ΔNLS FLAG (Q9H7D7, form named): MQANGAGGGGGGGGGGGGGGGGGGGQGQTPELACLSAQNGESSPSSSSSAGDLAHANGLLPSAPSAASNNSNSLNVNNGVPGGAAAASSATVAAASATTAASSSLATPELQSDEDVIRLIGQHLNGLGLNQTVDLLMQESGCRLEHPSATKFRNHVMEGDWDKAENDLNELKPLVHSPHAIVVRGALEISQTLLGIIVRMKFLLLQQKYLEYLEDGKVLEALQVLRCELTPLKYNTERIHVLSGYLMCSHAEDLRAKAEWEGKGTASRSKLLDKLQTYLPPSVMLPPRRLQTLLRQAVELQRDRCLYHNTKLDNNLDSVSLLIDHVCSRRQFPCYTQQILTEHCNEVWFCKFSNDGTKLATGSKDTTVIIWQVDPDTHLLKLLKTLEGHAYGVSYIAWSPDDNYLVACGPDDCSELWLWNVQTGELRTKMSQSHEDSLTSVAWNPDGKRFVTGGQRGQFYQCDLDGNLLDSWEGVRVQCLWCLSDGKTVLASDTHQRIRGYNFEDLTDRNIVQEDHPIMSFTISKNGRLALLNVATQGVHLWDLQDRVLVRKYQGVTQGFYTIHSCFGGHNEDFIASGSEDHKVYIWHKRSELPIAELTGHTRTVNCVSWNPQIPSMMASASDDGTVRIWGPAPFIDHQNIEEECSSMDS
UniProt Q14978: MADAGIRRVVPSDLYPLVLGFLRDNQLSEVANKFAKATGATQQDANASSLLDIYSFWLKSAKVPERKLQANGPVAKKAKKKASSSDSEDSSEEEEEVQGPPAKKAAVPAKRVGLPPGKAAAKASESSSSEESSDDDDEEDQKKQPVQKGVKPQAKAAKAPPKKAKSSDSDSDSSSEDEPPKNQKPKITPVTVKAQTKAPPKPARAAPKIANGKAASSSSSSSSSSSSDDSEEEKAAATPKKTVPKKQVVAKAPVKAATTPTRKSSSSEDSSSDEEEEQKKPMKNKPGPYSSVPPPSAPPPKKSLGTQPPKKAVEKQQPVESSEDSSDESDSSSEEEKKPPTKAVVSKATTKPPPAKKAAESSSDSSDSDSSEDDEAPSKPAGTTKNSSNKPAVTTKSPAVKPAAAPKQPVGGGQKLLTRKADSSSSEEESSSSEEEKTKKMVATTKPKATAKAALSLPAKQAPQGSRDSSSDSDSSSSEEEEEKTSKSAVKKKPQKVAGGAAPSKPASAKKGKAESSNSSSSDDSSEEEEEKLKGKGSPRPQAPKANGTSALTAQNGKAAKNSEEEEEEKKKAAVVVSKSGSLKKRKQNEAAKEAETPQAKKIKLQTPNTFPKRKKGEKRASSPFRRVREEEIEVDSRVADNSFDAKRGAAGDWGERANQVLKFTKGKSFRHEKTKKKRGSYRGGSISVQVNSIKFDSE

How the values were obtained:
WDR26-ΔNLS FLAG (human) = WDR26-ΔNLS FLAG (human) (UniProt Q9H7D7); assay: affinity purification with mass spectrometry; anti-FLAG M2 magnetic beads on lysates of CA1D cells transfected 24 h with FLAG-tagged WDR26 constructs; 50 mM Tris-HCl pH 8.0, 150 mM NaCl, 1 mM EDTA, 1% NP-40; trypsin digest, LC-MS/MS
WDR26-ΔNES FLAG (human) = WDR26-ΔNES FLAG (human) (UniProt Q9H7D7); assay: as above

binding (WDR26-ΔNLS FLAG (human)): no binding
binding (WDR26-ΔNES FLAG (human)): binds
Substance: NOLC1 (from UniProt Q14978 1-699)
